Target: Voltage-gated inwardly rectifying potassium channel KCNH2 (Homo sapiens, UniProt Q12809)
Test: Displacement of 3,7-Bis[2-(4-nitro[3,5-3H]phenyl)ethyl]-3,7-diazabicyclo[3.3.1]nonane from human ERG expressed in HEK cells after 3 hrs

By UniProt entry, the sequences of proteins in these tests, tags left out. Where a name states a change or a piece, a line headed by the entry shows the natural chain unless it says otherwise.
UniProt Q12809: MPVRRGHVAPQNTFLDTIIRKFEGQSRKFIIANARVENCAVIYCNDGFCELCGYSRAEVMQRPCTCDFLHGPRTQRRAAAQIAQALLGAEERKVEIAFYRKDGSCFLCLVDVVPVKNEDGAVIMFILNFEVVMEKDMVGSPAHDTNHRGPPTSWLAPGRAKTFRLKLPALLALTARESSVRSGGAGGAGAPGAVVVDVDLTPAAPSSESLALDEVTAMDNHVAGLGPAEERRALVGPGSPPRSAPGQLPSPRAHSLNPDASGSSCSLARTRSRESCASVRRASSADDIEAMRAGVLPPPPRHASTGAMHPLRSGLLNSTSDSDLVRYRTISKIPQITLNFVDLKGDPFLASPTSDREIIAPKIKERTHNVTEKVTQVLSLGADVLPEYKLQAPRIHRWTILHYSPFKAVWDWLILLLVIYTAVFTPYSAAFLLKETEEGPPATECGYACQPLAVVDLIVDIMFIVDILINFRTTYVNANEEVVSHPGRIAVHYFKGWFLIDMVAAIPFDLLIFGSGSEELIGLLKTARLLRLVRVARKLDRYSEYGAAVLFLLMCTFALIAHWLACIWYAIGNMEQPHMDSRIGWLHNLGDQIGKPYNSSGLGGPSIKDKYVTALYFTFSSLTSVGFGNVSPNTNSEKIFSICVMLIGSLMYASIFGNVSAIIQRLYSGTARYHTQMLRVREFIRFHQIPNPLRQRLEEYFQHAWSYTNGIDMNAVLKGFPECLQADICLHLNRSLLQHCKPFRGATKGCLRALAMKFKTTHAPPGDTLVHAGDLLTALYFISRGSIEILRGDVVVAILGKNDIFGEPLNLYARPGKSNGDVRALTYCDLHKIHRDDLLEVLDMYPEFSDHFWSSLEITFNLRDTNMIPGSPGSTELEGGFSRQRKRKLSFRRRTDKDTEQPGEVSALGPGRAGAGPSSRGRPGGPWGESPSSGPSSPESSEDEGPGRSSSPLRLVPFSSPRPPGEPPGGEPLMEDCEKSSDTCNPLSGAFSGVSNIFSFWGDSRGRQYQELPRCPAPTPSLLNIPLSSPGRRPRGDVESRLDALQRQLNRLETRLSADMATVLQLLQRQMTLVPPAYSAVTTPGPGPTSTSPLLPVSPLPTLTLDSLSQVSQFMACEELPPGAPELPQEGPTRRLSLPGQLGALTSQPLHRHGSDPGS

CCN(C(=O)Cc1ccc(S(C)(=O)=O)cc1)C1CCN(CC[C@@H](c2cccc(F)c2)C2CCN(S(C)(=O)=O)CC2)CC1
IC50: 35 µM

Reference: ChEMBL document CHEMBL1949642 (Bioorg Med Chem Lett, 2012)
